From US20150065481A1 (priority 2012, published 2015)
Some entries share one result that the patent states for a list of compounds.

Tested on: Phytophthora infestans
Assay type: in vivo
Details: 200 ppm; tomato leaf disks sprayed with formulated compound, inoculated 1 day after application; assessed 5-7 days after application, compared to untreated control leaf discs

Row | SMILES | disease control
1 | Cc1cc(C(F)(F)F)n(CC(=O)N2CC3(C2)CN(c2nc(C4=NOC(c5c(F)cccc5F)C4)cs2)C3)n1 (centres unmarked) [I.az.04, 1-[2-[4-[5-(2,6-difluorophenyl)-4,5-dihydroisoxazol-3-yl]thiazol-2-yl]-2,6-diazaspiro[3.3]heptan-6-yl]-2-[3-methyl-5-(trifluoromethyl)pyrazol-1-yl]ethanone] | at least 70%
2 | O=C(Cn1nc(C(F)F)cc1C(F)F)N1CC2(C1)CN(c1nc(C3=NOC(c4c(F)cccc4F)C3)cs1)C2 (centres unmarked) [I.az.022, 2-[3,5-bis(difluoromethyl)pyrazol-1-yl]-1-[2-[4-[5-(2,6-difluorophenyl)-4,5-dihydroisoxazol-3-yl]thiazol-2-yl]-2,6-diazaspiro[3.3]heptan-6-yl]ethanone] | at least 70%
